Measurements: paper PMC7782687, “Insights into SusCD-mediated glycan import by a prominent gut symbiont” (Nature Communications, 2021)
Positions count from the first letter of the chain named. No constants are given. Whether binding was seen depends on the method and setting. Some results given as binding are weak or reduced against the parent protein; the word gives no strength.

Columns and labels:
[1] = biological target: T1, Bt1762 (SusD) W85A (Bacteroides thetaiotaomicron) (UniProt Q8A6W4); experiment: co-purification (IMAC by the His6 tag on Bt1762, SDS-PAGE); OM fractions (LDAO extract) of WT (Bt1762-his) and mutant strains grown on MM fructose; Ni column, 0.2% LDAO in 20 mM Tris, 300 mM NaCl pH 8
T1 sequence (chain, lipid anchor (lipoprotein)): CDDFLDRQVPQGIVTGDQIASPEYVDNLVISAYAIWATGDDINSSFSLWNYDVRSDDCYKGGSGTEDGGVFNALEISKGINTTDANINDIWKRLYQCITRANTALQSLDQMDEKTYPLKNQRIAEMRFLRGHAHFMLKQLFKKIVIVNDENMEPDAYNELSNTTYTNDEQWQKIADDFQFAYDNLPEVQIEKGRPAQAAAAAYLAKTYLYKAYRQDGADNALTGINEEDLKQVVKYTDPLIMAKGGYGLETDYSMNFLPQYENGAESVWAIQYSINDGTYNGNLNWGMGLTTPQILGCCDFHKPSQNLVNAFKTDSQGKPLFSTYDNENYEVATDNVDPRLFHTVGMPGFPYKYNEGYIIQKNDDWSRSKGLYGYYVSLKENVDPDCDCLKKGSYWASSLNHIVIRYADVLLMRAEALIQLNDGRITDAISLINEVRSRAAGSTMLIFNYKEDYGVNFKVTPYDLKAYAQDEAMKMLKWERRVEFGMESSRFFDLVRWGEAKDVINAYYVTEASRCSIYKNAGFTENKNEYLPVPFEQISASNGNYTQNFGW

[2] = biological target: T2, Bt1762 (SusD) SusDBR, seven FOS-binding residues changed to alanine (Bacteroides thetaiotaomicron) (UniProt Q8A6W4); experiment: as above
T2 sequence (chain, lipid anchor (lipoprotein)): T1 sequence (chain, lipid anchor (lipoprotein)) with D41A, N43A, D67A, C298A, R368A, Y395A

binding [1]: binds | binding [2]: binds
B1: Bt1763 (SusC) TonB-dependent transporter of the Bacteroides thetaiotaomicron levan utilisation locus (protein, UniProt Q8A6W3 26-1041)
chain: GQNITVKGNVTSKTDGQPIIGASVVETTATTNGTITDFDGNFTLSVPVNSTLKITYIGYKPVTVKAAAIVNVLLEEDTQMVDEVVVTGYTTQRKADLTGAVSVVKVDEIQKQGENNPVKALQGRVPGMNITADGNPSGSATVRIRGIGTLNNNDPLYIIDGVPTKAGMHELNGNDIESIQVLKDAASASIYGSRAANGVIIITTKQGKKGQIKINFDASVSASMYQSKMNVLNTEQYGRAMWQAYVNDGENPNGNALGYAYNWGYNADGNPVLYGMTLSKYLDSKNTMPVADTDWFDEITRTGVIQQYNLSVSNGSEKGSSFFSLGYYKNLGVIKDTDFDRFSARMNSDYKLIDDILTIGQHFTLNRTSEVQAPGGIIETALDIPSAIPVYASDGSWGGPVGGWPDRRNPRAVLEYNKDNRYTYWRMFGDAYVNLTPFKGFNLRSTFGLDYANKQARYFTYPYQEGTQTNNGKSAVEAKQEHWTKWMWNAIATYQLEVGKHRGDVMIGMELNREDDSHFSGYKEDFSILTPDYMWPDAGSGTAQAYGAGEGYSLVSFFGKMNYSYADRYLLSLTLRRDGSSRFGKNHRYATFPSVSLGWRITQENFMKELTWLDDLKLRASWGQTGNQEISNLARYTIYAPNYGTTDSFGGQSYGTAYDITGSNGGGVLPSGFKRNQIGNDNIKWETTTQTNVGIDFSLFKQSLYGSLEYYYKKATDILTEMAGVGVLGEGGSRWINSGAMKNQGFEFNLGYRNKTAFGLTYDLNGNISTYRNEILELPETVAANGKFGGNGVKSVVGHTYGAQVGYIADGIFKSQDEVDNHATQEGAAVGRIRYRDIDHNGVIDERDQNWIYDPTPSFSYGLNIYLEYKNFDLTMFWQGVQGVDIISDVKKKSDFWSASNVGFLNKGTRLLNAWSPTNPNSDIPALTRSDTNNEQRVSTYFVENGSFLKLRNIQLGYTVPAVISKKMRMDRLRFYCSAQNLLTIKSKNFTGEDPENPNFSYPIPVNITFGLNIGF
